The values below come from PMC5344418, “Directed evolution of a soluble human DR3 receptor for the inhibition of TL1A induced cytokine secretion” (PLoS ONE, 2017).

Experiment [1] has as its target T1, TL1A (Abcam) (UniProt O95150).
T1 sequence: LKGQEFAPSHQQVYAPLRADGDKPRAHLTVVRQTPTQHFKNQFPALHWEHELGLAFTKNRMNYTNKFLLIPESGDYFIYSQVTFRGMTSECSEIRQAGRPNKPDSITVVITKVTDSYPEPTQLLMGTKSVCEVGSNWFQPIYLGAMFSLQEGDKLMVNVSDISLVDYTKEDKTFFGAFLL
Nature of the experiment: ELISA; plate coated with monoclonal mouse anti-TL1A antibody, then 0.6 ug/ml TL1A (Abcam); 100 ul medium of transfected HEK293T cells (48 or 72 h) added; detected with biotinylated goat anti-DR3 antibodies and streptavidin-peroxidase; only the target purified.

Experiment [2] concerns the target T1, TL1A (Abcam). Description: ELISA; plate coated with monoclonal mouse anti-TL1A antibody, then 0.6 ug/ml TL1A (Abcam); bought DR3-Fc (R&D Systems) added (2 ug/ml as positive control; five concentrations for the calibration curve); detected with biotinylated goat anti-DR3 antibodies and streptavidin-peroxidase; both purified. For orientation: ELISA stands for enzyme-linked immunosorbent assay.

Results are given in words; binding and its absence hold for the method and conditions named. Some binding calls cover weakened binding; strength is not graded here. Tags and fused reporters may be left off the sequences shown.

B1: native DR3-Fc (human DR3 extracellular domain fused with human IgG1 Fc) (Fc fusion, UniProt Q93038 25-199, looked up)
chain: QGGTRSPRCDCAGDFHKKIGLFCCRGCPAGHYLKAPCTEPCGNSTCLVCPQDTFLAWENHHNSECARCQACDEQASQVALENCSAVADTRCGCKPGWFVECQVSQCVSSSPFYCQPCLDCGALHRHTRLLCSRRDTDCGTCLPGFYEHGDGCVSCPTSTLGSCPERCAAVCGWRQ
modifications: N-linked glycosylation (shown by Endo-H cleavage)
notes: amplified from an EST cDNA clone (Open Biosystems); pFUSE vector (Invivogen); also called WT; soluble native DR3; source: HEK293T, transfected, conditioned medium (ELISA screen); 293F (HEK293F), transfected, purified (MonoQ, SP, butyl HIC); not shown: Fc (human IgG1), C-terminal, kept
Regarding B1, the binding entry with TL1A (Abcam) [1] is listed as “binds”.

B2: DR3-Fc (R&D Systems) (Fc fusion, UniProt Q93038 25-199)
chain: QGGTRSPRCDCAGDFHKKIGLFCCRGCPAGHYLKAPCTEPCGNSTCLVCPQDTFLAWENHHNSECARCQACDEQASQVALENCSAVADTRCGCKPGWFVECQVSQCVSSSPFYCQPCLDCGALHRHTRLLCSRRDTDCGTCLPGFYEHGDGCVSCPTSTLGSCPERCAAVCGWRQ
For B2, in the experiment with TL1A (Abcam) [2], the binding result is given as “binds”.
